We go through one molecule from article PMC11101121.

These are yes or no findings as the source states them, for the method shown. Binding seen in cells or lysates may run through a third protein. Here binding means that the protein was enriched with, or labelled near, the bait; the list need not be complete.

The target of this experiment is TgTBC9^3xHA (Toxoplasma gondii). As to the kind of experiment: affinity purification with mass spectrometry; TgTBC9^3xHA precipitated from NP-40 lysate (50 mM Tris pH 8.0, 150 mM NaCl, 1% NP-40) of extracellular parasites with anti-HA sepharose beads, 4 h at room temperature, 4 washes, eluted at high pH; untagged parasites as control; LC-MS/MS.

B1: Rab11B (protein, UniProt Q7Z158 1-226)
chain: MAGGSEDYDHLYKVILVGDATVGKTHLLSRYIRGTLPKSPKATIGVEFATRTVPLAVGGTVKAQIWDTAGQERYRSITSAHYRRAVGALLVYDVTRKSTFLNASKWLEELRQNSEPDIVIMMVGNKLDLVEKDPTARDVPYELAAKFAQANGLYFSEASAVTAFNVKHIFEHLLQEIYNHRTQGEEFSGRANGADAYRDAQALGGVRLAANANMYGRNPQNLSCCG
Consider B1, for which the binding entry is “binds”.
